We go through 1 variant from article PMC10183829 (2023).

The chains are these.
B1: mCh-AtC53 [Arabidopsis thaliana] / GST-GABARAP [human] (parent complex)
chain 1: MPSQDDVQNLPIDITFSRLGEWLVDRKRIPADWRKRVAVIRVKILKEFSSLPKEIDPFFQTLDPEVIGYLEVKKVYEILLKTTPESRNIFGRLSGASGVWEAIVRAFEKDHIYLGEAAQIIIQNVNYEIPYLKKQVQKVQQQMTELDRKEADIKRSVALSATKYEDACRELGLQGNNVRRELLETASSLPSTFSKILEVINSDSVTGAMEYYSAYVQDVHTEKDKPLRIVLQNLKYIRENPPSLSVFGDSEGLDADNIQSSENANGTDAAADSIDWDITVETPEIDWDVSMVEEVDSGNDLGSYEIVNASDIPENSPFKVEESQGLEVDVSEISWDVSVETPQVEEIGDSALLESNQTQLTDSTTQVLGSGGERSQLLETEYRNKILDDLYEVKAFLNQRLIELRNEDTLSLQHHVQAVSPMVLQQYSPETIEPMVVDISMAISLLTNKKSRDLIMILNSKRFLDRLVSELEEKKHREVKLRESLKDVGRRRMELQNSLSAIWPKQEAALSKTRELKELCETSLSSMFDGRPVNIRGEINTLLNAGVSA
chain 2: MKFVYKEEHPFEKRRSEGEKIRKKYPDRVPVIVEKAPKARIGDLDKKKYLVPSDLTVGQFYFLIRKRIHLRAEDALFFFVNNVIPPTSATMGQLYQEHHEEDFFLYIAYSDESVYGL

Variants of B1 are the subject of the assay. Description: microscopy-based protein-protein interaction assay (on-bead binding, confocal); 1 μM C53 protein; glutathione-sepharose beads with GST-GABARAP; read off a plot.
In the case of chain 1 W276A, chain 1 W287A, chain 1 W335A, the response is approximately 0.27 normalized fluorescence.
